Laboratory results as given in PMC11707020.
Results are given in words; binding and its absence hold for the method and conditions named. Binding seen in cells or lysates may run through a third protein. These calls come from enrichment with a bait or labelling near it, and not all partners need be listed.

Amino acid sequences for entries named in this document (tags omitted). Residues count along the entry.
UniProt Q9UHP3: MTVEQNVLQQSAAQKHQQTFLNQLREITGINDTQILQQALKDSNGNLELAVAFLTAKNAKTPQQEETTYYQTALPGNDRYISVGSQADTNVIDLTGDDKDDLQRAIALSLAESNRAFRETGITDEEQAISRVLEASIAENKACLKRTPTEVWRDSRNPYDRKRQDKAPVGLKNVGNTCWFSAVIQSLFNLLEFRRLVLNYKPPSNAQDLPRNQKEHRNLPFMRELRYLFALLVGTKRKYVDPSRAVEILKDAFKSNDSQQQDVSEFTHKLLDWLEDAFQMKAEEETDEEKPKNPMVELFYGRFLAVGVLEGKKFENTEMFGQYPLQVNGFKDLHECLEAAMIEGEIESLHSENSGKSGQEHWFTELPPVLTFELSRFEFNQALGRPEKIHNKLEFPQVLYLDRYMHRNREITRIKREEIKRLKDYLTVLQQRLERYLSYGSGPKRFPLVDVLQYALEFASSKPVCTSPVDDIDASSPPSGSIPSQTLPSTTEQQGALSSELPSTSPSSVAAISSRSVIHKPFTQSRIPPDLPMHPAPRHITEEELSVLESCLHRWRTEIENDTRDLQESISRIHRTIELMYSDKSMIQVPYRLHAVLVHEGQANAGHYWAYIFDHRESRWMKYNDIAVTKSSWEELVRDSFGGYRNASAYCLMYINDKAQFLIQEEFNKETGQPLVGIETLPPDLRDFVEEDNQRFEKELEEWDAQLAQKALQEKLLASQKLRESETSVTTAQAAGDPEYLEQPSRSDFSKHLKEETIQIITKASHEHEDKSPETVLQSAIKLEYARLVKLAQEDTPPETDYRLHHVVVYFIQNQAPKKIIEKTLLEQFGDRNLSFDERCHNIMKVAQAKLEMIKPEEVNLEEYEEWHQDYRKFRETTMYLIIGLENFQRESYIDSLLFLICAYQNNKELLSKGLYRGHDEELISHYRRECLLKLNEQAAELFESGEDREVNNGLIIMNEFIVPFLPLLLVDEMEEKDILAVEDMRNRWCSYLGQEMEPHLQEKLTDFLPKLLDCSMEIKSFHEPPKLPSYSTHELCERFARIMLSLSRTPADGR
UniProt P40763: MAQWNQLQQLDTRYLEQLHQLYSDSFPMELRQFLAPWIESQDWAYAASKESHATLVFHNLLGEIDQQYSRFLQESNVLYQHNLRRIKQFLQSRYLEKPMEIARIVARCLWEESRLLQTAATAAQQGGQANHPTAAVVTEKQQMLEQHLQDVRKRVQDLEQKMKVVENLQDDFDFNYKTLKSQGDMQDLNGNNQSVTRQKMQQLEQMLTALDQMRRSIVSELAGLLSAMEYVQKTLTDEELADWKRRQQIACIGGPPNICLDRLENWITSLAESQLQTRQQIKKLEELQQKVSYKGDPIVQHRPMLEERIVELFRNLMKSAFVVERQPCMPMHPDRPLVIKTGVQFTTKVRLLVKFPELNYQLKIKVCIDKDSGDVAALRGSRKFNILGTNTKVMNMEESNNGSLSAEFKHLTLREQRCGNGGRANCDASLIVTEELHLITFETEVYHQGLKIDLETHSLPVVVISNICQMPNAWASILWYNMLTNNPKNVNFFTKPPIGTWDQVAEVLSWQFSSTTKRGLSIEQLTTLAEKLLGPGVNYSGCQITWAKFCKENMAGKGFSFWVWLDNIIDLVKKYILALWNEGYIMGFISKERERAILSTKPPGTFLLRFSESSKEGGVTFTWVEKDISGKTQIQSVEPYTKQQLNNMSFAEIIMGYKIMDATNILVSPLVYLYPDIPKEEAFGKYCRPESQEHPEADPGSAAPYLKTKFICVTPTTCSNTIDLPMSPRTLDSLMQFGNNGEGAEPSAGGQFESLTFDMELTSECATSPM
UniProt P11021, residues 19-654: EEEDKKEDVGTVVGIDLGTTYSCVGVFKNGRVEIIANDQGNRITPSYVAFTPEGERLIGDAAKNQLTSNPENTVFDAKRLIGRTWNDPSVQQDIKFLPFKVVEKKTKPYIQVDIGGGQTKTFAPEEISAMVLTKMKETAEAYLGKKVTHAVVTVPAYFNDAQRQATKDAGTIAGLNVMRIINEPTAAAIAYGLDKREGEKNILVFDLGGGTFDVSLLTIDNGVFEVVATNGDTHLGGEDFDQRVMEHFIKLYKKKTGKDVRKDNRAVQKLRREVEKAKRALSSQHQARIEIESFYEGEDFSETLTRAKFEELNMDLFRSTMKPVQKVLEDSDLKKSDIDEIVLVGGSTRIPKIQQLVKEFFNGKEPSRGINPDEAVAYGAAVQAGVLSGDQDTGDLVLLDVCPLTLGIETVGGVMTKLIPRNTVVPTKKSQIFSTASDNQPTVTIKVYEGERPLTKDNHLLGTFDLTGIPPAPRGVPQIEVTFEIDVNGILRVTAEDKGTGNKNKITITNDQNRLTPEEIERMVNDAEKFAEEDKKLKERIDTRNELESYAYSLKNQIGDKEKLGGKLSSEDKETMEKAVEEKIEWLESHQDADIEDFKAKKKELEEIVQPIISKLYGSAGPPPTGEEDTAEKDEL

Target: USP25 overexpressed in 293T cells (bait of the IP-MS) (UniProt Q9UHP3)
Test: affinity purification with mass spectrometry; USP25 immunoprecipitated from USP25-overexpressing 293T cells (IP lysis buffer, protein A/G agarose beads), LC-MS/MS; candidates with >2 unique peptides

Row | binding | Substance
1 | binds | HSP90A (from UniProt P07900 1-732)
2 | binds | endogenous STAT3 (from UniProt P40763 1-770)
3 | binds | BIP (from UniProt P11021 19-654)
